The full ranking holds about 33,000 sequences; the median of “E-score (-0.5 to 0.5)” is about -0.015, and the highest 2% start at about 0.3. The list shows a part of the results.

This assay addresses T1, Abf1 (UniProt P14164).
T1 sequence: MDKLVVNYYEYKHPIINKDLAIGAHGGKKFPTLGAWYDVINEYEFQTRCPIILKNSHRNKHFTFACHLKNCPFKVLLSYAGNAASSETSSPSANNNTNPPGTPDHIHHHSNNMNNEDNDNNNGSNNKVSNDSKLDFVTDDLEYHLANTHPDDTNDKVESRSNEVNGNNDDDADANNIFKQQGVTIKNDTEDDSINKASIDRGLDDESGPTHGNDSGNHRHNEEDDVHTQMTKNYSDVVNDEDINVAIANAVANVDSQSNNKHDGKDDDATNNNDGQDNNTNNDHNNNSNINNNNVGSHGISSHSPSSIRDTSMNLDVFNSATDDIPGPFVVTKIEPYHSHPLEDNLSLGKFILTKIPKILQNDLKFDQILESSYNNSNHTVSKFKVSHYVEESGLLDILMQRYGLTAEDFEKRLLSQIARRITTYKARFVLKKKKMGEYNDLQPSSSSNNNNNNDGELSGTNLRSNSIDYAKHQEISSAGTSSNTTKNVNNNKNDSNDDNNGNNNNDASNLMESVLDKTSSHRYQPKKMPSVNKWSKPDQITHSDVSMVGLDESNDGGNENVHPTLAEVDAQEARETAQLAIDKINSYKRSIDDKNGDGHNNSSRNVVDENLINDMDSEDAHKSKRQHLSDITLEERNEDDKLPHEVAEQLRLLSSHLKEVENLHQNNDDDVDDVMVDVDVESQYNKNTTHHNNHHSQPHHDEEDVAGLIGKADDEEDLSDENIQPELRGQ
Description: PBM E-score (8-mer binding enrichment) (E-score (-0.5 to 0.5)); higher = stronger / more preferred TF binding. Conditions: protein concentration: 200 nM; construct: GST-full length. The essentials: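 Yeast transcription factors, full-length or as DNA-binding domains, were expressed with a GST tag using PURExpress in vitro transcription/translation. At about 100-200 nM they were applied to universal all-10-mer Agilent arrays, double-stranded by primer extension on fresh or once-stripped slides. Fluorescent anti-GST detected bound protein, and masliner normalised the scans. E-scores for ungapped eight-base words, pooled with reverse complements, came from the Universal PBM Analysis Suite.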
Take CGATTTGC: the “PBM E-score” value is -0.156.
The result for CCTCGCGC reads -0.0669; that for AGTGCAAT, -0.0902.
With ACCTCATA the figure was 0.195.
Consider AGAGCTCA, for which the “PBM E-score” value was -0.163.
Turning to CTCGTGTA, the “PBM E-score” value was determined as 0.157.
Regarding GGAGGTAA, the “PBM E-score” value came out at 0.0568.
With GCGATCGC, the “PBM E-score” value turned out to be 0.148.
As for ATGTGTAG, the “PBM E-score” value is -0.158.
Regarding ACAATGAA, the “PBM E-score” value came out at 0.0646.
The result for GGCTTGAC reads -0.237; that for CCCCCCAG, -0.448; that for AGCCGGTA, -0.013.
With CGCTGTGA the figure was 0.0398; with ATTGGTCG, 0.07.
Consider GATTACAA, for which the “PBM E-score” value came out at 0.19.
Turning to GGGACAGA, the “PBM E-score” value was -0.0867.
For the sequence CGTACTCA, the “PBM E-score” value was 0.304.
As to CAAGACAC, the “PBM E-score” value was -0.0928.
With CCGGCGCA the figure was -0.116.
Take TCAAGCGA: the “PBM E-score” value amounted to 0.0108.
On to CGCGACGC, for which the “PBM E-score” value was 0.127.
With ATATCGAG the figure was 0.11.
Take ACGAAGCA: the “PBM E-score” value came out at 0.214.
For the sequence ATTATCGA, the “PBM E-score” value was -0.0815.
For the sequence GGGGTCGA, the “PBM E-score” value is -0.208.
Turning to GACTGAGC, the “PBM E-score” value was -0.146.
CATCATAC: the “PBM E-score” value turned out to be 0.263.
GCAAATAC: the “PBM E-score” value is -0.0641.
With CCCTCCTA, the “PBM E-score” value was -0.168.
Regarding AATGCTCT, the “PBM E-score” value is 0.0865.
On to AATGTTTG, for which the “PBM E-score” value is -0.102.
On to GCCTAGTA, for which the “PBM E-score” value was -0.0486.
With CATTATAA the figure was 0.152; with AGAGTTAC, -0.0486; with GATGGAAC, -0.183.
On to ACAGTTGG, for which the “PBM E-score” value was -0.0476.
On to AAGCATAG, for which the “PBM E-score” value is -0.174.
For CCCATACG, the “PBM E-score” value was found to be 0.163.
For the sequence TAGACAGA, the “PBM E-score” value is -0.126.
In the case of ACCGATTG, the “PBM E-score” value worked out at 0.0553.
Regarding GTAACGAA, the “PBM E-score” value came to 0.123.
AACATGCT: the “PBM E-score” value was 0.0812.
In the case of AGATTCAA, the “PBM E-score” value amounted to 0.129.
Consider CAATATTG, for which the “PBM E-score” value stood at 0.0635.
As to AATTGTCA, the “PBM E-score” value worked out at 0.335.
The result for CGGGGCCC reads -0.0715; that for AAAAGAGT, -0.0776.
Turning to AGAGAGGC, the “PBM E-score” value was -0.223.
As for CAGCCAGA, the “PBM E-score” value was -0.176.
As to GAAAGCTC, the “PBM E-score” value was -0.278.
With CGTATGCA the figure was 0.0822.
With CACCACGC the figure was -0.248; with CATAAGCC, -0.108.
On to CAACGAGG, for which the “PBM E-score” value is 0.0306.
Regarding CTGGCATA, the “PBM E-score” value was 0.0307.
As to TCTAGTCA, the “PBM E-score” value was 0.0902.
Consider GTACATGA, for which the “PBM E-score” value worked out at 0.118.
With GAGGGTCA the figure was -0.164; with TGCTCAAA, 0.0834; with CAACGAGA, 0.158.
For the sequence CCGCGGTA, the “PBM E-score” value amounted to 0.0135.
With GCTCTTAC, the “PBM E-score” value worked out at 0.0312.
Take AAGCGTGG: the “PBM E-score” value was -0.0346.
Take AAGAAATT: the “PBM E-score” value was 0.175.
Regarding GACCTACA, the “PBM E-score” value is 0.0466.
With CCAATACG the figure was 0.0289.

The values above are taken from the supplement of paper PMC3334620.
